From doi:10.1101/069187

Protein sequences, listed by entry. Tags and fused reporters are not part of them. Residues count along the entry.
UniProt P02545, residues 1-646: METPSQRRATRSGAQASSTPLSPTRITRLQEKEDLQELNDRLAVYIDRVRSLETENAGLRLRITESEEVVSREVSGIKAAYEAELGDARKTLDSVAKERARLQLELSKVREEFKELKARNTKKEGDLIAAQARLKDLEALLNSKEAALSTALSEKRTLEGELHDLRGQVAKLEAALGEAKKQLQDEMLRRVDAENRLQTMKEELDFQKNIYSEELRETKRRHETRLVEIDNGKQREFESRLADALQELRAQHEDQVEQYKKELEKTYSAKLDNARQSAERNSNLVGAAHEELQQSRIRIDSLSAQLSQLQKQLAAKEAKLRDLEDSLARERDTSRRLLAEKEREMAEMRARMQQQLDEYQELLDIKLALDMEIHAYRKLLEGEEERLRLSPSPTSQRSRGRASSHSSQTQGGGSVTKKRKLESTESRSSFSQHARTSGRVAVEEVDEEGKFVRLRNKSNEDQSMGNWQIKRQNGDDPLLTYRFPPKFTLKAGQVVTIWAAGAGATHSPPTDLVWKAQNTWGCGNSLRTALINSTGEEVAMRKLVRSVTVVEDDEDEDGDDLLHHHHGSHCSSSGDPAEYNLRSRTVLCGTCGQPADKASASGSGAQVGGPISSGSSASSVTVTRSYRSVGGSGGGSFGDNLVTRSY
UniProt P12956: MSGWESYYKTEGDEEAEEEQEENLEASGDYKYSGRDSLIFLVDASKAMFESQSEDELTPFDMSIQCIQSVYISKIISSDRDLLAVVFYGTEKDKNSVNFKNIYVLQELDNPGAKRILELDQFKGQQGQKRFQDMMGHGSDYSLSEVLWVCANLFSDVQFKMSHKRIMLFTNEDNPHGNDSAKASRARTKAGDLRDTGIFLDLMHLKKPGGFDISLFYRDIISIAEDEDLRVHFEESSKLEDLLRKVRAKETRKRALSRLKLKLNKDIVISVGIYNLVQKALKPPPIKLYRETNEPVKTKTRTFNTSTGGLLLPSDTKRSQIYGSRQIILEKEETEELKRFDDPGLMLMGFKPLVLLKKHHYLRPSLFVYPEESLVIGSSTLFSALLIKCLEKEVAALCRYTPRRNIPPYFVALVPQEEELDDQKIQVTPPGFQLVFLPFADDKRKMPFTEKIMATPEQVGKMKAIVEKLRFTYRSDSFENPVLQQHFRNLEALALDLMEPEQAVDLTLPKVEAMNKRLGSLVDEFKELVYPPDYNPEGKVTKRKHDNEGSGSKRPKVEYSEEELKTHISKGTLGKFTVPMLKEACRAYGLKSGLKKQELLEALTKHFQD
UniProt Q03135: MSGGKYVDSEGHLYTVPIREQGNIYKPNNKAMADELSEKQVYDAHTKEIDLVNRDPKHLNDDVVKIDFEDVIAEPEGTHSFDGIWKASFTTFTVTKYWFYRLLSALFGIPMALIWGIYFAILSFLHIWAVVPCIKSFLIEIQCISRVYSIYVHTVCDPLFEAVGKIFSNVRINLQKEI
UniProt P13010: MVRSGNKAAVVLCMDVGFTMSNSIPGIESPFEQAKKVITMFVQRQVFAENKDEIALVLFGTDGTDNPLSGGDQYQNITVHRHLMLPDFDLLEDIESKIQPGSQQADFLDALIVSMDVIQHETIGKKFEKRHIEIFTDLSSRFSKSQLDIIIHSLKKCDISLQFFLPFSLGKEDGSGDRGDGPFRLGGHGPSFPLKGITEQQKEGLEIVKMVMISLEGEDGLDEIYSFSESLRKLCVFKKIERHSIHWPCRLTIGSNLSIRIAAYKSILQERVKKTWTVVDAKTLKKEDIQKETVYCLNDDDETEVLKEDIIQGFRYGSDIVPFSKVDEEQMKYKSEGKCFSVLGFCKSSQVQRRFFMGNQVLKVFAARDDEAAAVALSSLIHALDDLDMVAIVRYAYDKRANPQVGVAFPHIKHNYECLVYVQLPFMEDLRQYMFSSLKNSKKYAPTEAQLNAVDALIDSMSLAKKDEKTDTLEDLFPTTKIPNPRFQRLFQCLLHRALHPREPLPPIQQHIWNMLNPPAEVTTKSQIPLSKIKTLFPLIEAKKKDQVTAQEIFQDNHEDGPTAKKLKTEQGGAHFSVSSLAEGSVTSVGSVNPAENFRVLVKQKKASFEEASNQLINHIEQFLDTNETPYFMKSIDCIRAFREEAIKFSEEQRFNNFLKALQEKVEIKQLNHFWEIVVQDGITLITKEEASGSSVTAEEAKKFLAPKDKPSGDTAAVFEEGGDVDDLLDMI
UniProt P11142: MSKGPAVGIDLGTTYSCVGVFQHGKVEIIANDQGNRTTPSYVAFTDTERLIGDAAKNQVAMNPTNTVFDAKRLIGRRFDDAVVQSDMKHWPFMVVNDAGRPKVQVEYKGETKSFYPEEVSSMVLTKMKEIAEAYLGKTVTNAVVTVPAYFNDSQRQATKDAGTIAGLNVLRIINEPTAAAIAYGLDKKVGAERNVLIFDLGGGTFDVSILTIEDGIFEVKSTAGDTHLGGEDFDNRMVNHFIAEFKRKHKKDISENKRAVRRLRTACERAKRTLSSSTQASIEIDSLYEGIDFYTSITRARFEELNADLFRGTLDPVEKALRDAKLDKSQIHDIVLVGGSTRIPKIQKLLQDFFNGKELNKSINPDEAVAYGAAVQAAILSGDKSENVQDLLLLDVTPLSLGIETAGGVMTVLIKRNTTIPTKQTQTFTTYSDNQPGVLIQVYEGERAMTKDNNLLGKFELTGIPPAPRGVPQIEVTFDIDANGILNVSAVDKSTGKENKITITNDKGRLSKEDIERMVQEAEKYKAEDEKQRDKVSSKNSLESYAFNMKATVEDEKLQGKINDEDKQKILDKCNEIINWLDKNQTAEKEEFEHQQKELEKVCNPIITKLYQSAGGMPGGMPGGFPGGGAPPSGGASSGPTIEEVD

Key:
Test in all cases: proximity labelling
[1] = target: GFP-LMNA (UniProt P02545)
[2] = target: lamin A/C (human (endogenous in HeLa, primary human tissue and fibroblasts)) (UniProt P02545)
[3] = target: lamin A/C (human (endogenous in HeLa, primary human tissue and fibroblasts)) (UniProt P02545); remark: listed apart in the source
[4] = target: T1, α-sarcoglycan (not stated (primary skeletal muscle; human and mouse tissue were used)) (UniProt Q16586)
T1 sequence: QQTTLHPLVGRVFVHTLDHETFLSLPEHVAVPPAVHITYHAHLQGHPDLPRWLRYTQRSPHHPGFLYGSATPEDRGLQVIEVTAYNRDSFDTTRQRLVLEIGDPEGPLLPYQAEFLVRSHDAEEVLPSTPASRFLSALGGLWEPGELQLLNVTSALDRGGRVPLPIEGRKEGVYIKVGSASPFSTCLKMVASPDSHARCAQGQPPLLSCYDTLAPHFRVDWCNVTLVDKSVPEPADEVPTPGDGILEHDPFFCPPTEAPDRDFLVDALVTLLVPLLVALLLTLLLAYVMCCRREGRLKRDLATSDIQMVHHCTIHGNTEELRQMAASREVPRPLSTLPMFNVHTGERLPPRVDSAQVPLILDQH

Molecule: Ku70 (from UniProt P12956 1-609)
- binding [1]: binds
- binding [2]: binds

Molecule: caveolin-1 (from UniProt Q03135 1-178)
- binding [3]: binds
- binding [2]: binds

Molecule: Ku80 (from UniProt P13010 1-732)
- binding [1]: binds
- binding [2]: binds

Molecule: HSPA8 (from UniProt P11142 1-646)
- binding [2]: binds

B2: Muscular LMNA-interacting protein (protein, UniProt Q5VWP3 1-993)
chain: MLSEQGLLSDCGNNYFQMTSCILSGSIQTTPQVSAGGSEAKPLIFTFVPTVRRLPTHTQLADTSKFLVKIPEESSDKSPETVNRSKSNDYLTLNAGSQQERDQAKLTCPSEVSGTILQEREFEANKLQGMQQSDLFKAEYVLIVDSEGEDEAASRKVEQGPPGGIGTAAVRPKSLAISSSLVSDVVRPKTQGTDLKTSSHPEMLHGMAPQQKHGQLTSSPTTSEQLACKPPAFSFVSPTNPNTPPDPVNLEGASVLEEFHTRRLDVGGAVVEESATYFQTTAHSTPFSASKGTSSTLLFPHSTQLSGSNLPSSTAADPKPGLTSEVLKKTTLTSHVLSHGESPRTSSSPPSSSASLKSNSASYIPVRIVTHSLSPSPKPFTSSFHGSSSTICSQMSSSGNLSKSGVKSPVPSRLALLTAILKSNPSHQRPFSPASCPTFSLNSPASSTLTLDQKEKQTPPTPKKSLSSCSLRAGSPDQGELQVSELTQQSFHLPVFTKSTPLSQAPSLSPTKQASSSLASMNVERTPSPTLKSNTMLSLLQTSTSSSVGLPPVPPSSSLSSLKSKQDGDLRGPENPRNIHTYPSTLASSALSSLSPPINQRATFSSSEKCFHPSPALSSLINRSKRASSQLSGQELNPSALPSLPVSSADFASLPNLRSSSLPHANLPTLVPQLSPSALHPHCGSGTLPSRLGKSESTTPNHRSPVSTPSLPISLTRTEELISPCALSMSTGPENKKSKQYKTKSSYKAFAAIPTNTLLLEQKALDEPAKTESVSKDNTLEPPVELYFPAQLRQQTEELCATIDKVLQDSLSMHSSDSPSRSPKTLLGSDTVKTPTTLPRAAGRETKYANLSSPSSTVSESQLTKPGVIRPVPVKSRILLKKEEEVYEPNPFSKYLEDNSDLFSEQDVTVPPKPVSLHPLYQTKLYPPAKSLLHPQTLSHADCLAPGPFSHLSFSLSDEQENSHTLLSHNACNKLSHPMVAIPEHEALDSKEQ
- binding [3]: binds

Continued, values first:

- binding [4]: binds
Molecule: lamin A/C (from UniProt P02545 1-646)

- binding [2]: binds
Molecule: nesprin-2 (from UniProt Q8WXH0 1-6885)

- binding [3]: binds
- binding [2]: binds
Molecule: nesprin-1 (from UniProt Q8NF91 1-8797)

- binding [3]: binds
B1: lamin B2 (protein, UniProt Q03252 1-620)
chain: MSPPSPGRRREQRRPRAAATMATPLPGRAGGPATPLSPTRLSRLQEKEELRELNDRLAHYIDRVRALELENDRLLLKISEKEEVTTREVSGIKALYESELADARRVLDETARERARLQIEIGKLRAELDEVNKSAKKREGELTVAQGRVKDLESLFHRSEVELAAALSDKRGLESDVAELRAQLAKAEDGHAVAKKQLEKETLMRVDLENRCQSLQEELDFRKSVFEEEVRETRRRHERRLVEVDSSRQQEYDFKMAQALEELRSQHDEQVRLYKLELEQTYQAKLDSAKLSSDQNDKAASAAREELKEARMRLESLSYQLSGLQKQASAAEDRIRELEEAMAGERDKFRKMLDAKEQEMTEMRDVMQQQLAEYQELLDVKLALDMEINAYRKLLEGEEERLKLSPSPSSRVTVSRATSSSSGSLSATGRLGRSKRKRLEVEEPLGSGPSVLGTGTGGSGGFHLAQQASASGSVSIEEIDLEGKFVQLKNNSDKDQSLGNWRIKRQVLEGEEIAYKFTPKYILRAGQMVTVWAAGAGVAHSPPSTLVWKGQSSWGTGESFRTVLVNADGEEVAMRTVKKSSVMRENENGEEEEEEAEFGEEDLFHQQGDPRTTSRGCYVM

Like-named read-outs stand apart in the source and are kept apart here. Results are given in words; binding and its absence hold for the method and conditions named. In cells and extracts the contact can be indirect. A yes stands for co-enrichment or nearness to the bait. Other partners may have been found. Each block holds one molecule with its values, some of them ahead of it.
